Results published in paper PMC9429577.

Amino acid sequences for entries named in this document (tags omitted). A change or cut given only in a name is not applied to a line headed by its entry.
UniProt Q9GK11: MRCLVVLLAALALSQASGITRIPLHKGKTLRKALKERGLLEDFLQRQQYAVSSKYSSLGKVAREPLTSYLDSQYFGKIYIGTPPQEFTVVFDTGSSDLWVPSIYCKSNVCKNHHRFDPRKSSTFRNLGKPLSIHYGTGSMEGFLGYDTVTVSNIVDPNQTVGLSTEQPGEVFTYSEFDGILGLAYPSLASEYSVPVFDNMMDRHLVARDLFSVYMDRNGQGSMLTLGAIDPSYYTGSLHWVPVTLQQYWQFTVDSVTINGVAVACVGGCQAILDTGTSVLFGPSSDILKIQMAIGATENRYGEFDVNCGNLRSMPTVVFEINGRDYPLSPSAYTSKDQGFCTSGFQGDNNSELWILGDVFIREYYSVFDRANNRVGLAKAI
UniProt C4R3X8: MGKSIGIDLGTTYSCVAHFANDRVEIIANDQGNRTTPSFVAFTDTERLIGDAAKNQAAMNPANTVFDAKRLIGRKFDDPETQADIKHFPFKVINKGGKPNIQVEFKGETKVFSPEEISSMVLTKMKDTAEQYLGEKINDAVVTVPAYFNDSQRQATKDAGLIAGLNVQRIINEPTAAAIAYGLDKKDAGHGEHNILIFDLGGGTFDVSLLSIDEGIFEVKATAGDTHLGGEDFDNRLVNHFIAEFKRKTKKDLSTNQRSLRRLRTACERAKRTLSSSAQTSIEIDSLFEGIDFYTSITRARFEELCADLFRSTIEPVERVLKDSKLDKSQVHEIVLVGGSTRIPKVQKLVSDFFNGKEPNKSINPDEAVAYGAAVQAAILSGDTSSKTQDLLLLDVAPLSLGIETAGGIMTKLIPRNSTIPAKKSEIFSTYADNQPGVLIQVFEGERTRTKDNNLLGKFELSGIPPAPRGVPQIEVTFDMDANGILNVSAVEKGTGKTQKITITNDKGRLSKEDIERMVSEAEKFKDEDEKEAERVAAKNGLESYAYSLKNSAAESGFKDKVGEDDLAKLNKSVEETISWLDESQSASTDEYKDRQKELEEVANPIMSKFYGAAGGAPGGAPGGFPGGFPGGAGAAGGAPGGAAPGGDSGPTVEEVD
UniProt C4R887: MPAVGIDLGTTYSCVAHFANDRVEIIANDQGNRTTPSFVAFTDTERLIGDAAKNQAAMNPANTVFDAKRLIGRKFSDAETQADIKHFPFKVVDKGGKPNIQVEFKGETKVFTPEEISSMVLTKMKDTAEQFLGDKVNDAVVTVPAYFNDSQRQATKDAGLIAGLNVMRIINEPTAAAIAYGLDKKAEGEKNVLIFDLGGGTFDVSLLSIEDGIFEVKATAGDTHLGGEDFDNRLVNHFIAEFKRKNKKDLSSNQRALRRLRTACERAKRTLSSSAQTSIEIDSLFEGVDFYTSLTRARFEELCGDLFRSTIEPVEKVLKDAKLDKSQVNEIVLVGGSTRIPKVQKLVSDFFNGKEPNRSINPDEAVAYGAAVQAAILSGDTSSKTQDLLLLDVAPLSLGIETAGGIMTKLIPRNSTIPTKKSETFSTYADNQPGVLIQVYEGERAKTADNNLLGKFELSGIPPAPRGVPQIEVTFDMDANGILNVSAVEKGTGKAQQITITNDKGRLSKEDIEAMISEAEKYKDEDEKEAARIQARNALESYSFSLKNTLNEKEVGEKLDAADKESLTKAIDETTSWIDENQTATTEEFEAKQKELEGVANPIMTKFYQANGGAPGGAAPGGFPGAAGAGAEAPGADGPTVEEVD
UniProt C4R5E4: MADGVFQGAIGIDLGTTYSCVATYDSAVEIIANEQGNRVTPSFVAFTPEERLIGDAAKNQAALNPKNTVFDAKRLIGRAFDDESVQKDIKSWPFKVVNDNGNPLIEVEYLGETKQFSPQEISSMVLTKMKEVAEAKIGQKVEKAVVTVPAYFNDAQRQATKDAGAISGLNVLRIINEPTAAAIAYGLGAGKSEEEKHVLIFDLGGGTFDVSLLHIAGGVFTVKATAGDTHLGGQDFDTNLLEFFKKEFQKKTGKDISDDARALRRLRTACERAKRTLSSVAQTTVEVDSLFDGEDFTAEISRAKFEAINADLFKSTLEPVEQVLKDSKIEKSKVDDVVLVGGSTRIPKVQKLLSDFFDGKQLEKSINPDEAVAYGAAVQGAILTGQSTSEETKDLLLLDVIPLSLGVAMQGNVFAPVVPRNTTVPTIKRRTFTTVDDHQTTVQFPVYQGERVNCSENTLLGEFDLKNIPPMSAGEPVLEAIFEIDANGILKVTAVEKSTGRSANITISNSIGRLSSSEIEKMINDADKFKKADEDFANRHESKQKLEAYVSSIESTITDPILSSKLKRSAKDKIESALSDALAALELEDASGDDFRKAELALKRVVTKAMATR

Molecular target: wild camel prochymosin (chy) (camel) (UniProt Q9GK11)
Assay: affinity purification with mass spectrometry; lysates of chy-GS115 and chy34-GS115 cells after 24 h of methanol induction; rabbit anti-prochymosin polyclonal antibody on agarose beads (Immunoprecipitation Kit, Sangon); trypsin digest, three biological repetitions mixed, label-free LC-MS/MS, spectra searched against UniProt; differential interacting proteins at fold change >= 1.5

Substance | binding
Hsp70 (Gene symbol: PAS_chr3_0230) (from UniProt C4R3X8) | binds
Hsp70 (Gene symbol: PAS_chr4_0552) (from UniProt C4R887) | binds
Hsp70 (Gene symbol: PAS_chr3_0731) (from UniProt C4R5E4) | binds
Hsp90 (Gene symbol: PAS_chr1-4_0130) (from UniProt C4QXI5) | binds

No constants are given. Whether binding was seen depends on the method and setting. Binding seen in cells or lysates may run through a third protein. These calls come from enrichment with a bait or labelling near it, and not all partners need be listed.
